For two substances, binding results are on record in paper PMC5508529.

Chains of the proteins cited; added tags and fusions are not shown.
UniProt Q92793: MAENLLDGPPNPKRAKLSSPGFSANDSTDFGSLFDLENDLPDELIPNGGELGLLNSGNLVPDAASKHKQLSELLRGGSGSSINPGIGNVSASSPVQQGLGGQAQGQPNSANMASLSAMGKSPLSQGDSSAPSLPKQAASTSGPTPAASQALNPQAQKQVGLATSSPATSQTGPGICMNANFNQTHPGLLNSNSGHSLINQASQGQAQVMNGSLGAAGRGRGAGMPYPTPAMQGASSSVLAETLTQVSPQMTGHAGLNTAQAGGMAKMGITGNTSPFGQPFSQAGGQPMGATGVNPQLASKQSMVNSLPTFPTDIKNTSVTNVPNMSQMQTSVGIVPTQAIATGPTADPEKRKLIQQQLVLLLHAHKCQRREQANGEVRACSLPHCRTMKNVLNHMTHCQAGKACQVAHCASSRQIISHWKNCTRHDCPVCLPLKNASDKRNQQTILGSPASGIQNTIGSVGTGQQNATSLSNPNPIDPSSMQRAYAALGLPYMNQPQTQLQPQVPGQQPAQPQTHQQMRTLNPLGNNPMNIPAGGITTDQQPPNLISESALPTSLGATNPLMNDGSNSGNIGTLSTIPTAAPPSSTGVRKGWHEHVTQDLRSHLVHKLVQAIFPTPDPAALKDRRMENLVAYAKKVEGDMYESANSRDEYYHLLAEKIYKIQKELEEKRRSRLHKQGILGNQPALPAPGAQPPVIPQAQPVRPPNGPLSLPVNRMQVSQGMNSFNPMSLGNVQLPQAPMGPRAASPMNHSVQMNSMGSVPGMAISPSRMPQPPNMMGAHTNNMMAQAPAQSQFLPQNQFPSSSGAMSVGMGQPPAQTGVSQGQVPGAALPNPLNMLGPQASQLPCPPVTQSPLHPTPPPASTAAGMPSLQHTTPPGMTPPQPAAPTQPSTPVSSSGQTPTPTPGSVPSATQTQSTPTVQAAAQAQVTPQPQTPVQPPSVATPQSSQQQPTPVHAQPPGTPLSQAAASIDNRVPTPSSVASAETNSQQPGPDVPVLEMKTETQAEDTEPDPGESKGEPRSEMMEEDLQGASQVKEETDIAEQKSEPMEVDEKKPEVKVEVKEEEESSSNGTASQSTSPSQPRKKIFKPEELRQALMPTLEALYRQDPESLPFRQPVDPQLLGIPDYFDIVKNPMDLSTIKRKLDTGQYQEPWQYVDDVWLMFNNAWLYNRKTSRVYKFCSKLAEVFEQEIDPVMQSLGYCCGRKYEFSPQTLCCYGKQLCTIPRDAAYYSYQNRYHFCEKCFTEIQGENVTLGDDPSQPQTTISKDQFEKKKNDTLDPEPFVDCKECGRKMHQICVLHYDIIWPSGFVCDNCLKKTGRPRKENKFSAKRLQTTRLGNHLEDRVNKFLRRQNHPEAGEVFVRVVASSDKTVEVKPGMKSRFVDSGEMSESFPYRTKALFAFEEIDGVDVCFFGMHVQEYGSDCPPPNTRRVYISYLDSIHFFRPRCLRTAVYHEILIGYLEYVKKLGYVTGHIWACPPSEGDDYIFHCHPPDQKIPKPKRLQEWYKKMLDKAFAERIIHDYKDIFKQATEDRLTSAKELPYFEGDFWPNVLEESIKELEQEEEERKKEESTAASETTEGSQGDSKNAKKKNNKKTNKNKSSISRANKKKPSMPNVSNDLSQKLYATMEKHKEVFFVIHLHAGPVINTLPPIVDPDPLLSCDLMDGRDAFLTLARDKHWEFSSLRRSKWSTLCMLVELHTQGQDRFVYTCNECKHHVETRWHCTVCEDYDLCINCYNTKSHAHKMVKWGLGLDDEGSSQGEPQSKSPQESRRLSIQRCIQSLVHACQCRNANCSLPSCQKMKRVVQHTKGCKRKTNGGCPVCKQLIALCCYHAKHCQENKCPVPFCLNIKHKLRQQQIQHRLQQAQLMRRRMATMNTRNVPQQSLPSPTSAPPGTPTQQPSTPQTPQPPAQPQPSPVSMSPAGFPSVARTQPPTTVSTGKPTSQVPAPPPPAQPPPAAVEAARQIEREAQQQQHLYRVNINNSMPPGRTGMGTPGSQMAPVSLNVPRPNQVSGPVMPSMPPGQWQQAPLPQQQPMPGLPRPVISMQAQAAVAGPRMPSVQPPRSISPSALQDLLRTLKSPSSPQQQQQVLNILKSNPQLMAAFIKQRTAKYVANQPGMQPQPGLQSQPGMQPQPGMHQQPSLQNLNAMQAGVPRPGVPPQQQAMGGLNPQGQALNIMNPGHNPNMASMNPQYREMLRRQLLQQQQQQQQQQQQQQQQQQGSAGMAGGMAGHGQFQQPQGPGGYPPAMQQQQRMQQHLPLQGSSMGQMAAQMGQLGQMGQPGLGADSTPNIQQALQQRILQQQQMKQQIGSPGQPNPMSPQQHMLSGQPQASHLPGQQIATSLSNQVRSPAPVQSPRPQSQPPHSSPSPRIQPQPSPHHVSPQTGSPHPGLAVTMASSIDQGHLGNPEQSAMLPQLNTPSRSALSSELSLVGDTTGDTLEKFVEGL
UniProt O43524: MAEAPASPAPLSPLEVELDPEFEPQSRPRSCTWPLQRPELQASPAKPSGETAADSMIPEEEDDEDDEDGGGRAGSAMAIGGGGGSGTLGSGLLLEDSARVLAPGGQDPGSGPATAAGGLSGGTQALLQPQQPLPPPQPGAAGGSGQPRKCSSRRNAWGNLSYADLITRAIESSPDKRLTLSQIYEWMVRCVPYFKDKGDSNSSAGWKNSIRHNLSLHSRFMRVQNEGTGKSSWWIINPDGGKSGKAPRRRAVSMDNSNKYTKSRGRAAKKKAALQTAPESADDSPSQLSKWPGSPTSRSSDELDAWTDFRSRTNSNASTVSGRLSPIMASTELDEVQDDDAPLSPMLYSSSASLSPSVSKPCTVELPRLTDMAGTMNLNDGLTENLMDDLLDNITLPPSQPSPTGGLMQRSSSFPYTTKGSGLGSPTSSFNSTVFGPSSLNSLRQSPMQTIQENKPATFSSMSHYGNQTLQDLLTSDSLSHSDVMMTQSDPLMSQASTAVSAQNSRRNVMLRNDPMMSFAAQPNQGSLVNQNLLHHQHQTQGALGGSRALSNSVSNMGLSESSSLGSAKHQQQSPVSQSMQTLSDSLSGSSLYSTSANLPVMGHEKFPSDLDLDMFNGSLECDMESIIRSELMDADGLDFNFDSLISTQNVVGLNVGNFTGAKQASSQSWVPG
UniProt Q16665: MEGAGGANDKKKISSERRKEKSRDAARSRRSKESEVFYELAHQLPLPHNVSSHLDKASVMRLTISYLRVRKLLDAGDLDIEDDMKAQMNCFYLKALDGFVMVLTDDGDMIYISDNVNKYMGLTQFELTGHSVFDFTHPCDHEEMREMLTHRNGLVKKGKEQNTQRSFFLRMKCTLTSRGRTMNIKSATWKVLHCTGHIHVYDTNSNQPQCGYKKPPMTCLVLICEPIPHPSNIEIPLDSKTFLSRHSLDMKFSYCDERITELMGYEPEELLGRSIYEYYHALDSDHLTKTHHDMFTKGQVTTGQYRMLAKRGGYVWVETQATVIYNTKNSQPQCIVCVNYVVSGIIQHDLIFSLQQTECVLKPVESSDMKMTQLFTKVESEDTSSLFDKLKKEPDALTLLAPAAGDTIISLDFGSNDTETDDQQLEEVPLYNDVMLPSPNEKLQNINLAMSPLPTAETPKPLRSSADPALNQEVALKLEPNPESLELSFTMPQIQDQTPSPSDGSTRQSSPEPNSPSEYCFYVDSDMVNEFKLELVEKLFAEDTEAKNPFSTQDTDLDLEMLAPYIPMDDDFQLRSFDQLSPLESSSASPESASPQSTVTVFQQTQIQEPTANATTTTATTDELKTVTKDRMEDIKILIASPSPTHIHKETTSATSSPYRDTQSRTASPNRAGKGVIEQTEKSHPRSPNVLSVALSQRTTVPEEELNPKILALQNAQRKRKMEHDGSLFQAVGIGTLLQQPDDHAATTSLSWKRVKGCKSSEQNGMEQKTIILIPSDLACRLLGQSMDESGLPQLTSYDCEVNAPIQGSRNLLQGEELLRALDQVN

Results are given in words; binding and its absence hold for the method and conditions named. Binding seen in cells or lysates may run through a third protein. Some binding calls cover weakened binding; strength is not graded here.

In this test the target is CREB-binding protein (human (endogenous in UCB-hMSCs)) (UniProt Q92793). Description: co-IP; CBP antibody immobilised on AminoLink Plus coupling resin, incubated with UCB-hMSC lysate for 6 h at 4 °C; cells under hypoxia for 24 h or normoxia; IgG as negative control; western blot.

For “forkhead box, class O3 (from UniProt O43524 1-673)”, the binding result is given as “binds”. With “hypoxia-inducible factor-1 alpha (from UniProt Q16665 1-826)” the entry was “binds”.
